From patent US9441223
For at least one entry, the source does not settle the construct or the ends of the probe. At least one result comes from cells or an extract, where the contact may be indirect.

Protein sequences, listed by entry. Tags and fused reporters are not part of them.
UniProt Q921F2, whole entry: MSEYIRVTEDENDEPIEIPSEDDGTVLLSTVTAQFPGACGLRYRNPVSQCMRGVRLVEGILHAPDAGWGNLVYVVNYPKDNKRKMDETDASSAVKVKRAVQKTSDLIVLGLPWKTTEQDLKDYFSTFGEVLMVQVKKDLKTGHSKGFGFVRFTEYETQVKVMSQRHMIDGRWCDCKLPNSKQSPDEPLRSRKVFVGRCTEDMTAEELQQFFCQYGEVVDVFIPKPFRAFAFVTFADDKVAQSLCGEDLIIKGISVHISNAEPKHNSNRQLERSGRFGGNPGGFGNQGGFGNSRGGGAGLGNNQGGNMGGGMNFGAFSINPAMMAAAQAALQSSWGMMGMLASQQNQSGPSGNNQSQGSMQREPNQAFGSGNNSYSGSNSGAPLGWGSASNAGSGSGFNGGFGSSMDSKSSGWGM

Columns and labels:
[1] = biological target: TDP-43 (Rattus norvegicus) (UniProt A0A8I6GLU8); experiment: binding assay; conditions: reanalysis of public RIP-seq; motif equivalently enriched in RefGene and repeat targets; protein in cells; only the motif is given
TDP-43 (Mus musculus) = TDP-43 (Mus musculus) (UniProt Q921F2); experiment: binding assay; conditions: reanalysis of public CLIP-seq; motif enriched in RefGene and repeat targets; protein in cells; protein details: endogenous, CLIP; only the motif is given

UGUGU [UGUGU pentamer motif]
binding result [1]: binds
binding result (TDP-43 (Mus musculus)): binds
